Results taken from the supplement of paper PMC8728848.
The list shows a part of the results.

Key:
Assay in all cases: glycan array binding signal (z-score within array); higher = stronger binding
Settings in all cases: glycan notation: IUPAC condensed, linker removed
[1] = biological target: Fuc(a1-3)[Gal(b1-4)]GlcNAc(b1-3)Gal(b1-4)[Fuc(a1-3)]GlcNAc
Summary of the method: (§1)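 Arrays were curated from the Consortium for Functional Glycomics database, 3228 in total, and kept only where the protein sequence was available. Binding is expressed as a within-array Z-score. This score was averaged across arrays of the same protein sequence at different concentrations or buffers and across linkers, and negative values can be read as non-binding.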

[2] = biological target: Fuc(a1-3)[Gal(b1-4)]GlcNAc(b1-3)Gal(b1-4)[Fuc(a1-3)]GlcNAc(b1-3)Gal(b1-4)[Fuc(a1-3)]GlcNAc
Summary of the method: as §1

[3] = biological target: Fuc(a1-3)[Gal(b1-4)]GlcNAc(b1-3)GalNAc
Summary of the method: as §1

[4] = biological target: Fuc(a1-3)[Gal(b1-4)]GlcNAc(b1-6)GalNAc
Summary of the method: as §1

[5] = biological target: Fuc(a1-3)[Gal(b1-4)]GlcNAc(b1-6)[Gal(b1-3)GlcNAc(b1-3)]Gal(b1-4)Glc
Summary of the method: as §1

[6] = biological target: Fuc(a1-3)[Gal(b1-4)]GlcNAc6S
Summary of the method: as §1

[7] = biological target: Fuc(a1-3)[Gal3S(b1-4)]Glc
Summary of the method: as §1

[8] = biological target: Fuc(a1-3)[Gal3S(b1-4)]GlcNAc
Summary of the method: as §1

[9] = biological target: Fuc(a1-3)[Gal3S(b1-4)]GlcNAc6S
Summary of the method: as §1

[10] = biological target: Fuc(a1-3)[GalNAc(b1-4)]GlcNAc
Summary of the method: as §1

[11] = biological target: Fuc(a1-3)[GalNAc(b1-4)]GlcNAc6S
Summary of the method: as §1

Fuc(a1-4)GlcNAc = biological target: Fuc(a1-4)GlcNAc
Summary of the method: as §1

Fuc(b1-3)GlcNAc = biological target: Fuc(b1-3)GlcNAc
Summary of the method: as §1

Gal(a1-2)Gal = biological target: Gal(a1-2)Gal
Summary of the method: as §1

Gal(a1-3)Gal = biological target: Gal(a1-3)Gal
Summary of the method: as §1

Gal(a1-3)Gal(b1-3)GlcNAc = biological target: Gal(a1-3)Gal(b1-3)GlcNAc
Summary of the method: as §1

[12] = biological target: Gal(a1-3)Gal(b1-3)GlcNAc(b1-2)Man
Summary of the method: as §1

[13] = biological target: Gal(a1-3)Gal(b1-3)GlcNAc(b1-2)Man(a1-3)[Gal(a1-3)Gal(b1-3)GlcNAc(b1-2)Man(a1-6)]Man(b1-4)GlcNAc(b1-4)GlcNAc
Summary of the method: as §1

[14] = biological target: Gal(a1-3)Gal(b1-3)GlcNAc(b1-3)GalNAc
Summary of the method: as §1

[15] = biological target: Gal(a1-3)Gal(b1-3)GlcNAc(b1-6)GalNAc
Summary of the method: as §1

[16] = biological target: Gal(a1-3)Gal(b1-3)[Fuc(a1-4)]GlcNAc(b1-2)Man(a1-3)[Gal(a1-3)Gal(b1-3)[Fuc(a1-4)]GlcNAc(b1-2)Man(a1-6)]Man(b1-4)GlcNAc(b1-4)GlcNAc
Summary of the method: as §1

Gal(a1-3)Gal(b1-4)Glc = biological target: Gal(a1-3)Gal(b1-4)Glc
Summary of the method: as §1

Gal(a1-3)Gal(b1-4)GlcNAc = biological target: Gal(a1-3)Gal(b1-4)GlcNAc
Summary of the method: as §1

[17] = biological target: Gal(a1-3)Gal(b1-4)GlcNAc(b1-2)Man
Summary of the method: as §1

[18] = biological target: Gal(a1-3)Gal(b1-4)GlcNAc(b1-2)Man(a1-3)[Gal(a1-3)Gal(b1-4)GlcNAc(b1-2)Man(a1-6)]Man(b1-4)GlcNAc(b1-4)GlcNAc
Summary of the method: as §1

[19] = biological target: Gal(a1-3)Gal(b1-4)GlcNAc(b1-3)GalNAc
Summary of the method: as §1

[20] = biological target: Gal(a1-3)Gal(b1-4)GlcNAc(b1-6)GalNAc
Summary of the method: as §1

[21] = biological target: Gal(a1-3)Gal(b1-4)[Fuc(a1-3)]GlcNAc
Summary of the method: as §1

[22] = biological target: Gal(a1-3)Gal(b1-4)[Fuc(a1-3)]GlcNAc(b1-2)Man(a1-3)[Gal(a1-3)Gal(b1-4)[Fuc(a1-3)]GlcNAc(b1-2)Man(a1-6)]Man(b1-4)GlcNAc(b1-4)GlcNAc
Summary of the method: as §1

Gal(a1-3)GalNAc = biological target: Gal(a1-3)GalNAc
Summary of the method: as §1

[23] = biological target: Gal(a1-3)[Gal(a1-4)]Gal(b1-4)GlcNAc
Summary of the method: as §1

[24] = biological target: Gal(a1-4)Gal(b1-3)GlcNAc(b1-2)Man(a1-3)[Gal(a1-4)Gal(b1-3)GlcNAc(b1-2)Man(a1-6)]Man(b1-4)GlcNAc(b1-4)GlcNAc
Summary of the method: as §1

Gal(a1-4)Gal(b1-4)Glc = biological target: Gal(a1-4)Gal(b1-4)Glc
Summary of the method: as §1

Gal(a1-4)Gal(b1-4)GlcNAc = biological target: Gal(a1-4)Gal(b1-4)GlcNAc
Summary of the method: as §1

[25] = biological target: Gal(a1-4)Gal(b1-4)GlcNAc(b1-2)Man(a1-3)[Gal(a1-4)Gal(b1-4)GlcNAc(b1-2)Man(a1-6)]Man(b1-4)GlcNAc(b1-4)GlcNAc
Summary of the method: as §1

[26] = biological target: Gal(a1-4)Gal(b1-4)GlcNAc(b1-3)Gal(b1-4)Glc
Summary of the method: as §1

Gal(a1-4)GlcNAc = biological target: Gal(a1-4)GlcNAc
Summary of the method: as §1

Gal(a1-6)Glc = biological target: Gal(a1-6)Glc
Summary of the method: as §1

B1: Gs78B-bfa-542-29-542 (Bacteroides fragilis) (protein)
chain: SEDINRNPLLPTKEDEKMDGVIYGAYLPNLEKSVIPIGTASESTEPVNRYQIGVNLAGDAWAGYMSPRDNKFNGSKNFTNYFMYENWVNYVYSFMVTDVYSPWMQIKRISQDEGTRNDEIYALAQIIKIAALHRTTDMFGPIPYSQVGKGSFKVAYDSQESVYRSFLKELEEAVQTLDDYSNKSKEVLPAFDIVYNGDVNKWMRFANSLMLRLAIRVRFADAGLAKEYAEKAVKHPAGLINSKELAAQMGKGAGLQMKNPLKVINEEYNDTRMGATIYSYLAGYNDARAAVYFVKNNGFKAVRCGIAKSGDAYNGFTRPNVHEDDPLYWMKASEVCFLKAEGALAGFDMGGSAGDFYNAGIRMSFSENGLDNSSAETYLKDSTRKPANYTDTSNGELSANAPSSITIRWENGATEEEKLERIITQKYLAIFPNGQEAWTEWRRTGYPRQIVVAENKTNSAVLIGNGYDLGGVRRLPYPRTEYEQNGENLHNAISQYLGGVDNAATKVWWDKKSK
With B1 the “glycan array binding signal (z-score)” value [1] was 0.211, the “glycan array binding signal (z-score)” value [2] was -0.127 and the “glycan array binding signal (z-score)” value [3] was 0.574. For the same binder, the “glycan array binding signal (z-score)” value [4] was 0.625, the “glycan array binding signal (z-score)” value [5] was 1.76 and the “glycan array binding signal (z-score)” value [6] was -0.74. For the same binder, the “glycan array binding signal (z-score)” value [7] was 0.204, the “glycan array binding signal (z-score)” value [8] was -0.79 and the “glycan array binding signal (z-score)” value [9] was 1.34. The “glycan array binding signal (z-score)” value [10] was 2.08, the “glycan array binding signal (z-score)” value [11] was 2.67 and the “glycan array binding signal (z-score)” value (Fuc(a1-4)GlcNAc) was -0.834. For the same binder, the “glycan array binding signal (z-score)” value (Fuc(b1-3)GlcNAc) was -0.804, the “glycan array binding signal (z-score)” value (Gal(a1-2)Gal) was -0.171 and the “glycan array binding signal (z-score)” value (Gal(a1-3)Gal) was -0.783. For the same binder, the “glycan array binding signal (z-score)” value (Gal(a1-3)Gal(b1-3)GlcNAc) was 0.194, the “glycan array binding signal (z-score)” value [12] was 0.439 and the “glycan array binding signal (z-score)” value [13] was 0.647. For the same binder, the “glycan array binding signal (z-score)” value [14] was 0.171, the “glycan array binding signal (z-score)” value [15] was 0.533 and the “glycan array binding signal (z-score)” value [16] was 4.3. The “glycan array binding signal (z-score)” value (Gal(a1-3)Gal(b1-4)Glc) was -0.167, the “glycan array binding signal (z-score)” value (Gal(a1-3)Gal(b1-4)GlcNAc) was -0.138 and the “glycan array binding signal (z-score)” value [17] was 0.182. For the same binder, the “glycan array binding signal (z-score)” value [18] was 2.05, the “glycan array binding signal (z-score)” value [19] was 0.878 and the “glycan array binding signal (z-score)” value [20] was -0.331. The “glycan array binding signal (z-score)” value [21] was -0.047, the “glycan array binding signal (z-score)” value [22] was 1.42 and the “glycan array binding signal (z-score)” value (Gal(a1-3)GalNAc) was -0.126. The “glycan array binding signal (z-score)” value [23] was 0.701, the “glycan array binding signal (z-score)” value [24] was 1.76 and the “glycan array binding signal (z-score)” value (Gal(a1-4)Gal(b1-4)Glc) was 2.76. The “glycan array binding signal (z-score)” value (Gal(a1-4)Gal(b1-4)GlcNAc) was 0.632, the “glycan array binding signal (z-score)” value [25] was 1.51 and the “glycan array binding signal (z-score)” value [26] was -0.65. The “glycan array binding signal (z-score)” value (Gal(a1-4)GlcNAc) was 0.473 and the “glycan array binding signal (z-score)” value (Gal(a1-6)Glc) was -0.763.
